At least one compound was matched to its structure with a doubt left.
Tested on: LACS mRNA expression in the heart
Assay: LACS mRNA expression in the hearts of AngII infusion rats
Type: in vivo, rat
Details: ARB 10 mg/kg/day, Hyd 12 mg/kg/day
Protocol: Cardiac tissues derived from AngII infusion rats (osmotic pump: 0.7 mg/kg/day), and SHRs of 4 weeks and 24 weeks, were used. ATIR antagonist (ARB) and hydrazine (Hyd) were used as antihypertensive agents. Each of the antihypertensive agents was used at an amount sufficient for lowering the blood pressure (10 mg/kg/day for ARB; 12 mg/kg/day for Hyd).

## NN [hydrazine]
  Suppression of the AngII-induced increase of LACS expression by simultaneous antihypertensive agent: not by the simultaneous administration of hydrazine

From patent publication US7345158B2, “Actin related cytoskeletal protein “LACS”” (Anges MG, Inc., priority 2002, dated 2008)
